{"source": "PubChem BioAssay AID540256", "about": "(National Center for Advancing Translational Sciences (NCATS), 2011)", "note": "Among all 300,000 compounds or so, about 3,700 (1.2%) were called active. This list was built around the results that the source calls inconclusive (neither active nor inactive); the mix of calls is not that of the screen. Calls follow the shape of the full dose curve; tested in HEK293 cells. Potencies beside an inconclusive call are fits to weak or partial responses and may not hold up. Potency is read from the fitted curve at half-maximal effect.", "data": [{"assay": "qHTS for Inhibitors of binding or entry into cells for Lassa Virus; also: nearly all actives have a fitted effect of over 50% in size", "details": "Lassa virus pseudotype entry inhibition, cell reporter; series mostly up to 37.9 µM", "values": [{"smiles": "CCOc1ccc(-c2nnc(-c3cccs3)o2)cc1", "Potency": "inconclusive: 6.51 µM [inhibitor, full curve, poor fit]"}, {"smiles": "COc1cccc(NC(=O)Nc2ccc3c(c2)N(C)C(=O)c2ccccc2S3)c1", "Potency": "inconclusive: 35.5 µM [inhibitor, single point]"}, {"smiles": "COC(=O)c1ccccc1NC(=O)c1ccccc1N(C)S(=O)(=O)c1ccccc1", "Potency": "inconclusive: 0.794 µM [activator, single point]"}, {"smiles": "COc1ccc(C2C(C(C)=O)=C(O)C(=O)N2C)c(OC)c1", "note": "(centres undefined)", "Potency": "inconclusive: 14.1 µM [activator, partial curve, poor fit]"}, {"smiles": "COc1cccc(CC(=O)Nc2ccc(S(=O)(=O)N3CCCCC3)cc2)c1", "Potency": "inconclusive: 35.5 µM [inhibitor, single point]"}, {"smiles": "CC(C)c1ccc(NC(=O)C(c2ccccc2)N2CCN(C(=O)c3ccco3)CC2)cc1", "note": "(centres undefined)", "Potency": "inactive"}, {"smiles": "CCCCOC(=O)c1c(C)oc2c1cc(NS(=O)(=O)c1cc(OC)ccc1OC)c1ccccc12", "Potency": "inconclusive: 35.5 µM [inhibitor, single point]"}, {"smiles": "CCn1c(=O)c2sccc2n2c(CCCC(=O)N3CCN(c4ccc(F)cc4)CC3)nnc12", "Potency": "inactive"}, {"smiles": "CCCCOc1ccc(C(=O)N(Cc2ccccc2)C2CCS(=O)(=O)C2)cc1", "note": "(centres undefined)", "Potency": "inconclusive: 10 µM [inhibitor, partial curve, poor fit]"}, {"smiles": "C=CCn1c(=S)[nH]c2nc3c(cc2c1=O)COC(C)(C)C3", "Potency": "inconclusive: 6.51 µM [inhibitor, single point]"}, {"smiles": "CC(=O)c1c(Cl)nc2cccc3c2c1-c1ccccc1C3=O", "Potency": "inactive"}, {"smiles": "CC(=O)c1cccc(NC(=O)c2ccc3nc(Cc4ccccc4)oc3c2)c1", "Potency": "inconclusive: 8.91 µM [inhibitor, partial curve, poor fit]"}, {"smiles": "COc1ccc(-c2csc(N3CCC(c4ccccc4)C3)n2)cc1", "note": "(centres undefined)", "Potency": "inconclusive: 4.11 µM [inhibitor, full curve]"}, {"smiles": "COc1cccc2cc(-c3nc(-c4ccc(Cl)cc4)cs3)c(=O)oc12", "Potency": "inconclusive: 6.31 µM [activator, single point]"}, {"smiles": "CN(C)c1ccc(-n2cccc2/C=N/n2cnnc2)cc1", "Potency": "inconclusive: 14.6 µM [activator, partial curve, poor fit]"}, {"smiles": "O=C(NCc1ccccc1)c1noc2c1CCCCC2", "Potency": "inactive"}, {"smiles": "NC1=NC(=Nc2ccccc2)c2ccccc21", "Potency": "active: 13 µM"}, {"smiles": "COc1cccc(NCc2ccc([N+](=O)[O-])s2)c1", "Potency": "inconclusive: 16.4 µM [activator, single point]"}, {"smiles": "CCOc1ccc(-c2cc3c(=O)n(CC(=O)NCc4ccc(F)cc4)ccn3n2)cc1", "Potency": "inconclusive: 1.12 µM [activator, full curve, poor fit]"}, {"smiles": "Cc1cccc(C)c1NC(=O)c1cc(S(=O)(=O)N2CCc3ccccc3C2)ccc1F", "Potency": "inconclusive: 1.41 µM [activator, partial curve, poor fit]"}, {"smiles": "C=CCOn1c(C)c(C(C)=O)c2c3nonc3ccc21", "Potency": "inactive"}, {"smiles": "COc1ccc(CC(=O)Nc2nc3c(s2)CCCC3)cc1", "Potency": "active: 3.98 µM"}, {"smiles": "CCOc1cccc2sc(N(CCCN(C)C)C(=O)c3ccc(S(=O)(=O)N(CC)Cc4ccccc4)cc3)nc12", "Potency": "inconclusive: 20 µM [inhibitor, partial curve, poor fit]"}, {"smiles": "COc1ccccc1C(=O)Nc1cccc(Oc2c(F)c(F)c(F)c(F)c2F)c1", "Potency": "inconclusive: 7.94 µM [inhibitor, partial curve, poor fit]"}, {"smiles": "CC(C)(C)n1ncc2c(=O)n(CC(=O)NCc3ccccc3Cl)cnc21", "Potency": "inconclusive: 7.94 µM [inhibitor, partial curve, poor fit]"}, {"smiles": "CCCCCCCCn1ccc(=N)cc1", "Potency": "inconclusive: 10 µM [inhibitor, partial curve, poor fit]"}, {"smiles": "Clc1ccc(Cn2cc(/C=N/n3cnnc3)c3ccccc32)c(Cl)c1", "Potency": "inconclusive: 17.8 µM [inhibitor, single point]"}, {"smiles": "CCN(CC)c1ccc(C(=O)OCC(=O)Nc2ncccn2)cc1", "Potency": "inactive"}, {"smiles": "COc1cccc(NC(=O)c2c(C)oc3nc(C)nc(N4CCCC4)c23)c1", "Potency": "inconclusive: 35.5 µM [activator, single point]"}, {"smiles": "CCN1CCN(Cc2c(O)ccc3oc(C)c(C(=O)Nc4cccc(C(F)(F)F)c4)c23)CC1", "Potency": "inconclusive: 12.6 µM [inhibitor, single point]"}, {"smiles": "Cc1nnc(SCC(=O)N2CCC(c3noc4ccc(F)cc34)CC2)s1", "Potency": "inactive"}, {"smiles": "CC(=NNC(=S)Nc1ccccc1Cl)c1ccccn1", "Potency": "active: 0.251 µM"}, {"smiles": "CCN(CC)c1ccc2cc(-c3nc4sc5c(c4c(=O)[nH]3)CCC(C(C)(C)C)C5)c(=O)oc2c1", "note": "(centres undefined)", "Potency": "inactive"}, {"smiles": "FC(F)(F)c1cc(-c2ccccc2)nc2cc(-c3ccccc3)nn12", "Potency": "inconclusive: 3.55 µM [activator, partial curve]"}, {"smiles": "CC(C)Cc1ccc(C(=O)Nc2ccc(Cc3ccncc3)cc2)o1", "Potency": "inconclusive: 8.91 µM [inhibitor, partial curve, poor fit]"}, {"smiles": "CCc1ccccc1NC(=O)c1ccc(S(=O)(=O)NCC2CCCO2)cc1", "note": "(centres undefined)", "Potency": "inactive"}, {"smiles": "CCOC(=O)C1=C(CSc2nc3ccccc3s2)NC(=O)NC1c1ccc(OC)cc1", "note": "(centres undefined)", "Potency": "inconclusive: 14.6 µM [inhibitor, partial curve, poor fit]"}, {"smiles": "CCc1nnc(NC(=O)CSc2nc3c([nH]c4ccccc43)c(=O)n2-c2ccc(Cl)cc2)s1", "Potency": "active: 7.94 µM"}, {"smiles": "O=C(Nc1cccc(C(=O)O)c1)/C(=C\\c1ccccc1Cl)NC(=O)c1ccco1", "Potency": "inconclusive: 35.5 µM [activator, single point]"}, {"smiles": "O=C(CSc1nc(-c2ccccc2)ns1)NCC1CCCO1", "note": "(centres undefined)", "Potency": "inconclusive: 1.78 µM [activator, full curve]"}, {"smiles": "CCN(CC)S(=O)(=O)c1ccc2c(c1)N(CC(=O)Nc1cccc(C#N)c1)C(=O)CO2", "Potency": "inactive"}, {"smiles": "O=C(Cc1ccccc1F)Nc1ccc2c(c1)CCC2", "Potency": "inactive"}, {"smiles": "CCNC(=O)NC(=O)C(C)Sc1ccc2c(c1)OCCO2", "note": "(centres undefined)", "Potency": "inactive"}, {"smiles": "COc1ccc(NC(=O)C2CCCN(S(=O)(=O)c3ccc(F)cc3)C2)cc1", "note": "(centres undefined)", "Potency": "inactive"}, {"smiles": "CCOc1ccc(NC(=O)c2ccc(Br)o2)c([N+](=O)[O-])c1", "Potency": "inconclusive: 3.98 µM [activator, full curve, poor fit]"}, {"smiles": "CC(NC(=S)NCCc1ccccc1)C(c1cccs1)N1CCN(Cc2ccccc2)CC1", "note": "(centres undefined)", "Potency": "inconclusive: 29.1 µM [inhibitor, single point]"}, {"smiles": "O=C1SCCN1N=Cc1ccc([N+](=O)[O-])o1", "Potency": "inconclusive: 35.5 µM [inhibitor, partial curve, poor fit]"}, {"smiles": "Cc1ccc(CN(C(=O)COc2ccccc2[N+](=O)[O-])c2ccccn2)o1", "Potency": "inactive"}, {"smiles": "O=C(Cn1nnc(-c2ccccc2NC(=O)c2ccccc2F)n1)NCc1ccco1", "Potency": "inconclusive: 35.5 µM [inhibitor, single point]"}, {"smiles": "O=[N+]([O-])c1ccc(S(=O)Cc2ccccc2)c([N+](=O)[O-])c1", "note": "(centres undefined)", "Potency": "active: 11.2 µM"}, {"smiles": "CCC1(c2ccc(F)cc2)NC(=O)N(CC(=O)Nc2ccc(-c3nc4ccc(C)cc4s3)cc2)C1=O", "note": "(centres undefined)", "Potency": "inconclusive: 35.5 µM [inhibitor, single point]"}, {"smiles": "N#CC(C#N)=C(Nc1ccc(F)cc1)SCc1cccc(Br)c1", "Potency": "inconclusive: 11.6 µM [inhibitor, partial curve, poor fit]"}, {"smiles": "O=C(NCC(=O)N(c1ccc(Cl)cc1)C(C(=O)NC1CCCC1)c1ccncc1)c1ccco1", "note": "(centres undefined)", "Potency": "inactive"}, {"smiles": "Cc1ccc(CSc2nnc(SCC(=O)N/N=C/C=C/c3ccco3)s2)cc1", "Potency": "inconclusive: 11.6 µM [inhibitor, partial curve, poor fit]"}, {"smiles": "O=C(CSc1ncccc1C(=O)Oc1ccccc1Cl)Nc1ccc(C(F)(F)F)cc1Cl", "Potency": "inconclusive: 5.62 µM [activator, single point]"}, {"smiles": "CCCCn1c(O)c(C(CC)=NCc2ccc3c(c2)OCO3)c(=O)[nH]c1=O", "Potency": "inconclusive: 10 µM [inhibitor, partial curve, poor fit]"}, {"smiles": "O=C(CN1C(=O)c2ccccc2S1(=O)=O)c1cccc(Br)c1", "Potency": "active: 1.26 µM"}, {"smiles": "Cc1cc(C(=O)COC(=O)c2cccc(S(=O)(=O)N(C)C)c2)c(C)n1CC1CCCO1", "note": "(centres undefined)", "Potency": "inactive"}, {"smiles": "CCOc1ccc(C(=O)Nc2nnc(SCc3cc(=O)n4ccccc4n3)s2)cc1", "Potency": "inactive"}, {"smiles": "CCN(Cc1ccccc1)S(=O)(=O)c1cc(Br)cc2c1N(C(=O)C1CC1)CC2", "Potency": "inactive"}, {"smiles": "Cc1ccc(NC(=O)c2cnc(N3CCCC3)nc2C)cc1F", "Potency": "inactive"}, {"smiles": "N#C/C(=C\\c1ccccc1C(=O)O)c1nc2ccccc2[nH]1", "Potency": "inconclusive: 1.26 µM [activator, partial curve, poor fit]"}, {"smiles": "Cc1ccc(S(=O)(=O)N(CC(=O)N2CCc3ccccc3C2)c2cccc(Cl)c2)cc1", "Potency": "active: 14.1 µM"}, {"smiles": "Cc1cccc(C(=O)Nc2ccc3c(c2)ncn3C)c1", "Potency": "inconclusive: 2 µM [activator, partial curve, poor fit]"}, {"smiles": "COc1ccc(-c2noc(CCc3ccccc3)n2)cc1", "Potency": "inconclusive: 5.01 µM [activator, full curve, poor fit]"}, {"smiles": "CN(C)S(=O)(=O)c1cccc(C(=O)Nc2ccccc2Cl)c1", "Potency": "inactive"}, {"smiles": "COc1ccc(C2NCCc3c2[nH]c2ccccc32)cc1CSc1nc2ccccc2s1", "note": "(centres undefined)", "Potency": "inconclusive: 18.4 µM [inhibitor, single point]"}, {"smiles": "CCC(C)NCCOCCOc1ccc(Cl)c(C)c1C", "note": "(centres undefined)", "Potency": "inconclusive: 22.4 µM [inhibitor, partial curve, poor fit]"}, {"smiles": "CCOC(=O)c1c(CN2CCN(CCO)CC2)n(-c2ccccc2)c2cc(Br)c(O)cc12", "Potency": "inconclusive: 12.6 µM [inhibitor, partial curve, poor fit]"}]}]}
